Reference: the supplement of paper PMC12823440, “Inhibitors supercharge kinase turnover through native proteolytic circuits” (Nature, 2025)
Counter-ions that a name gives are not always drawn. This is one part of the list. The calls rarely recur for the same compound in another form.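 Kinases were expressed as nanoluciferase fusions in K562 cells and luminescence was read every 4 h between 2 and 18 h as percent of control, DMSO set to 100% and a positive control to 0%. A time point counts as decreased when the signal drops significantly (2 sigma). The hit call is the authors' own, does not follow from the count of time points alone, and its rule is not shown.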

The chains behind the UniProt entries cited, without tags or fusion partners. Where a name states a change or a piece, a line headed by the entry shows the natural chain unless it says otherwise.
UniProt Q15208: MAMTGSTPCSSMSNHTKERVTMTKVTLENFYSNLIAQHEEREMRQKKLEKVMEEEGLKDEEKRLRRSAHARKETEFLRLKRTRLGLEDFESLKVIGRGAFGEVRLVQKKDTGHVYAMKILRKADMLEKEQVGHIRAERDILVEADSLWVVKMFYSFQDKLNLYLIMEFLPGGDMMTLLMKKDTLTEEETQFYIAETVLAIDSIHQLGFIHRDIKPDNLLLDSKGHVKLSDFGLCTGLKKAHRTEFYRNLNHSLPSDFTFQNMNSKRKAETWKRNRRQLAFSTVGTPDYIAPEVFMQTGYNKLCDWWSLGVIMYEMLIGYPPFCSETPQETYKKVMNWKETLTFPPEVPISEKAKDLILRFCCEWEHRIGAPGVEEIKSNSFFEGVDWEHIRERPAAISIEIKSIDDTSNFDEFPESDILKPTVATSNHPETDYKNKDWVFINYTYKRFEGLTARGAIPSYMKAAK
UniProt P42680: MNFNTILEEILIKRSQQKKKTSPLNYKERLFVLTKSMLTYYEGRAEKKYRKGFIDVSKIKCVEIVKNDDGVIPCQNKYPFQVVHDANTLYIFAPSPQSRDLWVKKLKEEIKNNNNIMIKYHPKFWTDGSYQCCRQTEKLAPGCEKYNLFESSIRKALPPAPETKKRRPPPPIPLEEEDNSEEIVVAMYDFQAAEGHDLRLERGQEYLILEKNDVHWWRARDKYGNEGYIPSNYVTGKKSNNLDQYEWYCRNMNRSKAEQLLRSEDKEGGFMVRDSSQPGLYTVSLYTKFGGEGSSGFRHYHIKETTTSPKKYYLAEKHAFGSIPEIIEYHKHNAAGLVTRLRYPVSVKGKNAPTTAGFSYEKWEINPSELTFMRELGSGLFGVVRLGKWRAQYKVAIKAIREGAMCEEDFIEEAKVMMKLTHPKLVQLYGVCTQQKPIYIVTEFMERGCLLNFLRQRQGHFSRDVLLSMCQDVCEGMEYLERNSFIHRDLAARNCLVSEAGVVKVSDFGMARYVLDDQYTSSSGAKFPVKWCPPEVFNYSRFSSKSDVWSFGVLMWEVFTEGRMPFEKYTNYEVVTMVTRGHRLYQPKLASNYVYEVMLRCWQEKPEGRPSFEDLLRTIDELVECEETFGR
UniProt P29597: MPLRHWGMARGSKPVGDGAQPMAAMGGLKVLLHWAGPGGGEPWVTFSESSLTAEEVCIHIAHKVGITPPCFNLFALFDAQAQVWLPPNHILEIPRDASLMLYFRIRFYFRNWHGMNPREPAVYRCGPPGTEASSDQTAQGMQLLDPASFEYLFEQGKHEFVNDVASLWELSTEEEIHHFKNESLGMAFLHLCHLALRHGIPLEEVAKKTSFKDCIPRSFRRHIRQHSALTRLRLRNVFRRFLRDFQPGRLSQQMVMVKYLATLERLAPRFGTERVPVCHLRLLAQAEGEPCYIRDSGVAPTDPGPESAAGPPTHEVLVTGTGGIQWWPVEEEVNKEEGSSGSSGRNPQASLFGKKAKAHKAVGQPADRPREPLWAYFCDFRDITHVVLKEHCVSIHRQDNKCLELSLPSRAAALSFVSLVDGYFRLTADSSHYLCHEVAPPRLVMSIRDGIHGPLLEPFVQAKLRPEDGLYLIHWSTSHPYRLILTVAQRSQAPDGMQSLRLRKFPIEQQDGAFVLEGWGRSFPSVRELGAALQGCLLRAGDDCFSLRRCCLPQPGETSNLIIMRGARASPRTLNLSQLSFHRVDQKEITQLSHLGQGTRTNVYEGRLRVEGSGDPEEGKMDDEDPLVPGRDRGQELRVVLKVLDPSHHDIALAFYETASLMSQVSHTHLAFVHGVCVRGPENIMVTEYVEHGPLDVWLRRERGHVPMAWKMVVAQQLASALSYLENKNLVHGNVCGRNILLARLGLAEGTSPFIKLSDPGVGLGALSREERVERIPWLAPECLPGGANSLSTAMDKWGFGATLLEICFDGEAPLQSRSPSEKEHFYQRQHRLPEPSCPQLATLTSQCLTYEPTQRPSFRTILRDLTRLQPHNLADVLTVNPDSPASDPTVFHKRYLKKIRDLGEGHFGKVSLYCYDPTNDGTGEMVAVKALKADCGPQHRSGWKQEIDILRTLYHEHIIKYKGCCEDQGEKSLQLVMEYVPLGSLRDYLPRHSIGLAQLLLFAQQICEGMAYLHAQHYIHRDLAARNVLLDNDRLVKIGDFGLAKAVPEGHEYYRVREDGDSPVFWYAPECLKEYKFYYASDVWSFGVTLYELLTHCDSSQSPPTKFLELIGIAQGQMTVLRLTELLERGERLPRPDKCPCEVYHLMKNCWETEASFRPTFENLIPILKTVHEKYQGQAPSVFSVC
UniProt Q6PHR2: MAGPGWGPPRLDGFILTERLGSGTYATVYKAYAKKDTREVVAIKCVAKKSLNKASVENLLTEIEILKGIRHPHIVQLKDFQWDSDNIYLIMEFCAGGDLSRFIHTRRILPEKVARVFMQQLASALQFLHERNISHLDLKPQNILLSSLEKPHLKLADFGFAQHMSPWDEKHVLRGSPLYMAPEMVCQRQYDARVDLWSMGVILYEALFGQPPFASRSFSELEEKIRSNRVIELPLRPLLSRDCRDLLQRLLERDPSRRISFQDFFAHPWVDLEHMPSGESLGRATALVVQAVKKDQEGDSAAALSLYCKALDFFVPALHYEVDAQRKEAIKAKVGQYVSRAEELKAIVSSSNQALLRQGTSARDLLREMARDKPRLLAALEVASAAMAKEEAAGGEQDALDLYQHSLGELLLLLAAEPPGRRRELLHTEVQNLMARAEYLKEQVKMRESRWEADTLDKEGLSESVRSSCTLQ
UniProt P31749: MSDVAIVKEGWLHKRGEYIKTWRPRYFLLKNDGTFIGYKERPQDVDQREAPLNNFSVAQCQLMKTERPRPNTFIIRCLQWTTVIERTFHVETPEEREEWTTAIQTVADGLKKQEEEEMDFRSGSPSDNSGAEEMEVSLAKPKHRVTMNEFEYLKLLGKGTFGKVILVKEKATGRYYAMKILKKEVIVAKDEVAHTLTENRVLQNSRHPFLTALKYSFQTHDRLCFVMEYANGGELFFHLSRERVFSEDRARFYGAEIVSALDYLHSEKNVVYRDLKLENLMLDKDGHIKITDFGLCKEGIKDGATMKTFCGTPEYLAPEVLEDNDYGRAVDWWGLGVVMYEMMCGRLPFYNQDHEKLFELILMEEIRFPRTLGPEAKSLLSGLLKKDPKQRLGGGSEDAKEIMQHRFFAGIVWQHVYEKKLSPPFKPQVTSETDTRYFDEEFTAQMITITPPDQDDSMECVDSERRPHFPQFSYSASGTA
UniProt O14965: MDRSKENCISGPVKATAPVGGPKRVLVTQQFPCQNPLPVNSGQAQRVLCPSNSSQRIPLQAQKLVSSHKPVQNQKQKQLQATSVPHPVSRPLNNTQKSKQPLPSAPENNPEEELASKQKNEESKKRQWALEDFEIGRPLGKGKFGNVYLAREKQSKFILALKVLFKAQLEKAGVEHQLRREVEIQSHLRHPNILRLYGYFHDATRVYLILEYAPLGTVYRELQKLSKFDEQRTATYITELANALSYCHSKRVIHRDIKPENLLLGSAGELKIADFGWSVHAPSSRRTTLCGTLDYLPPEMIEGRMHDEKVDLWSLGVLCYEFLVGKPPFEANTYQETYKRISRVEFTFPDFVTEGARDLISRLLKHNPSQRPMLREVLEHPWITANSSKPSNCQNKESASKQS
UniProt Q96GD4, whole entry: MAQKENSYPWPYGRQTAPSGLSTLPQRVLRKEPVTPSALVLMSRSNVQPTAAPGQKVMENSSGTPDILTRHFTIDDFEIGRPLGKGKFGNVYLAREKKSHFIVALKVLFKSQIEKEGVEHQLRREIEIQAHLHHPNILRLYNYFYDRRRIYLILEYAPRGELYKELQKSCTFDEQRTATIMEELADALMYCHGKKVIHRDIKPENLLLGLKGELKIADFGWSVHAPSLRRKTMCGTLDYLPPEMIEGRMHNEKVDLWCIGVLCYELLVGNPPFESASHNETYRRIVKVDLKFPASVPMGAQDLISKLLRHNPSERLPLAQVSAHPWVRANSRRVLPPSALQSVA
UniProt Q9UQB9: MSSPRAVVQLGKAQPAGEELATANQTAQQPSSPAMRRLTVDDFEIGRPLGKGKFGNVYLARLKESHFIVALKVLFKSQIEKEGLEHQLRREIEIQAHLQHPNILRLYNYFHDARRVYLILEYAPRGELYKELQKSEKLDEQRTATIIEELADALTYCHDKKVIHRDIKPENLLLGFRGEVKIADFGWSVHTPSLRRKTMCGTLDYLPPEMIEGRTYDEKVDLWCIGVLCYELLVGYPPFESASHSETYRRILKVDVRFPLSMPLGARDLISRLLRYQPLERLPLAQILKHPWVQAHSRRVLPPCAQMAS
UniProt P51813: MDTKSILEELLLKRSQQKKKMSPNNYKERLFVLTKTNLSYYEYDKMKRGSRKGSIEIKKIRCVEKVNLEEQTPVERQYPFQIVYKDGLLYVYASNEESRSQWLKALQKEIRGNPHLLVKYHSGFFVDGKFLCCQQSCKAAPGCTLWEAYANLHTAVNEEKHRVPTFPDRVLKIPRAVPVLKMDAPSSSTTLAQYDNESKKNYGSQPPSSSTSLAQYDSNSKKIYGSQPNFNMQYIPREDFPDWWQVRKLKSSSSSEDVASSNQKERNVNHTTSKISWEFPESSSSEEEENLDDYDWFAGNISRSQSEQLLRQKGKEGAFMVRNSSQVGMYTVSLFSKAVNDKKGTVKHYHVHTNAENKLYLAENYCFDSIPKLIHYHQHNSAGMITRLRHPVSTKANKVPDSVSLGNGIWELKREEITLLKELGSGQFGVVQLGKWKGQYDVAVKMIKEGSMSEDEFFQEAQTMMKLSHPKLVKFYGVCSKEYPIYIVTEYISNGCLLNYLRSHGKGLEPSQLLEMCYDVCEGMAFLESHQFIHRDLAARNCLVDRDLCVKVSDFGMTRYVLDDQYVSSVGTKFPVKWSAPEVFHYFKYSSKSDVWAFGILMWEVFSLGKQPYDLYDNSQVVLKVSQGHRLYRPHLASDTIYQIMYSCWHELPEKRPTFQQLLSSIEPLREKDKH
UniProt P15056, whole entry, looked up: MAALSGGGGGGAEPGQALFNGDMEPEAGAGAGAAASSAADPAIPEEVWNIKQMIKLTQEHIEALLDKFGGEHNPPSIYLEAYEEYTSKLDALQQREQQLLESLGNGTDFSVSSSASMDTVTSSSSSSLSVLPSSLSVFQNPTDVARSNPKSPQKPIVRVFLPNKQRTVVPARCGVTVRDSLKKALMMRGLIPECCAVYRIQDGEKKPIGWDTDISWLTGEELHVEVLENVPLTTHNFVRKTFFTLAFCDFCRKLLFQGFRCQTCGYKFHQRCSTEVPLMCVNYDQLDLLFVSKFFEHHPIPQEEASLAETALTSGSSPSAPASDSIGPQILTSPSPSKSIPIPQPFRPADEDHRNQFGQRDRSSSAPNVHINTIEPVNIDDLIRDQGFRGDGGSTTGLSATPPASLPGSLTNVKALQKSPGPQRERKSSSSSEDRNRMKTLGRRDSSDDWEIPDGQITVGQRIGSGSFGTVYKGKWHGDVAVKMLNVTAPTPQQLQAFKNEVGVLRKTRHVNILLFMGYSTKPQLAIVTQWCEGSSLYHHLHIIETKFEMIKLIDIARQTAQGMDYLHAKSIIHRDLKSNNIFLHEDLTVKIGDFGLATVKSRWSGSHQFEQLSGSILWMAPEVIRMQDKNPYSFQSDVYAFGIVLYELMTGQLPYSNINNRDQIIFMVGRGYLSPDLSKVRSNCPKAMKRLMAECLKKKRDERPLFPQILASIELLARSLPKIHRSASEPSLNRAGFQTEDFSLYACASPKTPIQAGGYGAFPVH
UniProt Q06187: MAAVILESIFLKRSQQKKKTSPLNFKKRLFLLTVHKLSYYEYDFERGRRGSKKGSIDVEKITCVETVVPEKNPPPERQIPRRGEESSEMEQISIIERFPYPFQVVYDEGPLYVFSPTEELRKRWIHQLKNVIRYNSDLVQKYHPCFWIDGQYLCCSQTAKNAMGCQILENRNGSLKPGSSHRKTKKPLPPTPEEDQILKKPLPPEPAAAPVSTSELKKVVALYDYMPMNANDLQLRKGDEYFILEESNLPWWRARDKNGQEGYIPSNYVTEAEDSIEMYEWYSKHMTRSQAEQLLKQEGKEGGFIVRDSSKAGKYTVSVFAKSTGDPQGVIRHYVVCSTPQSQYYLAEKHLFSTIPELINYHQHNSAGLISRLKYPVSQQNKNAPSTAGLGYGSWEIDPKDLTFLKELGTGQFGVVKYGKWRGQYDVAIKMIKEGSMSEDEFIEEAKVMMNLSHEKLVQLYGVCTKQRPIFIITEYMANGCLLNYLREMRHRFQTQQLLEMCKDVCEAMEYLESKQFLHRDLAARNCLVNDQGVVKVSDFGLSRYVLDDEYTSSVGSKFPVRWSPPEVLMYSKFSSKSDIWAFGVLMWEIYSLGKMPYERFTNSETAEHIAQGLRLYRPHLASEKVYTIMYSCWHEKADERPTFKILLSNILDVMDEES

Experiments:
Conditions in all cases: K562; 2-18 h
[1] = molecular target: STK38 (UniProt Q15208); assay: kinase-Nluc reporter destabilization hit call (1 = scored as downregulated) (binary); higher = compound decreases kinase abundance
[2] = molecular target: SYK (UniProt P43405); assay: as above
[3] = molecular target: TEC (UniProt P42680); assay: as above
[4] = molecular target: TYK2 (UniProt P29597); assay: as above
[5] = molecular target: ULK3 (UniProt Q6PHR2); assay: as above
[6] = molecular target: YES1 (UniProt P07947); assay: as above
[7] = molecular target: ZAK (UniProt Q9NYL2); assay: as above
[8] = molecular target: ZAP70 (UniProt P43403); assay: as above
[9] = molecular target: ABL1 (UniProt P00519); assay: number of time points (of 5) at which kinase-Nluc abundance scored as decreased, DMSO-normalised (count); higher = more persistent destabilization
[10] = molecular target: AKT1 (UniProt P31749); assay: as above
[11] = molecular target: ALK (UniProt Q9UM73); assay: as above
[12] = molecular target: ARAF (UniProt P10398); assay: as above
[13] = molecular target: AURKA (UniProt O14965); assay: as above
[14] = molecular target: AURKB (UniProt Q96GD4); assay: as above
[15] = molecular target: AURKC (UniProt Q9UQB9); assay: as above
[16] = molecular target: BLK (UniProt P51451); assay: as above
[17] = molecular target: BMX (UniProt P51813); assay: as above
[18] = molecular target: BRAF (UniProt P15056); assay: as above
[19] = tested on: BRAF_V600E; assay: as above
[20] = molecular target: BTK (UniProt Q06187); assay: as above

CN(C)C(=O)c1ccc(Cn2c(C(=O)O)cc3c(Br)cc(Sc4ccc(Cl)c(Cl)c4)cc32)cc1 [Rheb inhibitor NR1] (10 µM)
0: number of time points [9] | number of time points [10] | number of time points [11] | number of time points [12] | number of time points [13] | number of time points [14] | number of time points [15] | number of time points [16] | number of time points [17] | number of time points [18] | number of time points [19] | number of time points [20]
inactive: kinase-Nluc reporter destabilization hit call [1] 0 | kinase-Nluc reporter destabilization hit call [2] 0 | kinase-Nluc reporter destabilization hit call [3] 0 | kinase-Nluc reporter destabilization hit call [4] 0 | kinase-Nluc reporter destabilization hit call [5] 0 | kinase-Nluc reporter destabilization hit call [6] 0 | kinase-Nluc reporter destabilization hit call [7] 0 | kinase-Nluc reporter destabilization hit call [8] 0

COc1cc2c(cc1F)C(c1ccccc1Cl)=Nc1c(n[nH]c1C)N2 (0.5 µM)
inactive: kinase-Nluc reporter destabilization hit call [1] 0 | kinase-Nluc reporter destabilization hit call [2] 0 | kinase-Nluc reporter destabilization hit call [3] 0 | kinase-Nluc reporter destabilization hit call [4] 0 | kinase-Nluc reporter destabilization hit call [5] 0 | kinase-Nluc reporter destabilization hit call [6] 0 | kinase-Nluc reporter destabilization hit call [7] 0 | kinase-Nluc reporter destabilization hit call [8] 0
0: number of time points [9] | number of time points [10] | number of time points [11] | number of time points [12] | number of time points [13] | number of time points [14] | number of time points [15] | number of time points [16] | number of time points [17] | number of time points [18] | number of time points [19]

C[C@H]1CC[C@]2(NC1)O[C@H]1C[C@H]3[C@@H]4CC[C@H]5C[C@@H](O)CC[C@]5(C)[C@H]4CC[C@]3(C)[C@H]1[C@@H]2C [Tomatidine (hydrochloride)] (10 µM)
0: number of time points [9] | number of time points [10] | number of time points [11] | number of time points [12] | number of time points [13] | number of time points [14] | number of time points [15] | number of time points [16] | number of time points [17] | number of time points [18] | number of time points [19] | number of time points [20]
inactive: kinase-Nluc reporter destabilization hit call [1] 0 | kinase-Nluc reporter destabilization hit call [2] 0 | kinase-Nluc reporter destabilization hit call [3] 0 | kinase-Nluc reporter destabilization hit call [4] 0 | kinase-Nluc reporter destabilization hit call [5] 0 | kinase-Nluc reporter destabilization hit call [6] 0 | kinase-Nluc reporter destabilization hit call [7] 0 | kinase-Nluc reporter destabilization hit call [8] 0

COc1ccc2c(c1)/C(=C/c1cnc[nH]1)C(=O)N2 (2.5 µM)
0: number of time points [9] | number of time points [10] | number of time points [11] | number of time points [12] | number of time points [13] | number of time points [14] | number of time points [15] | number of time points [16] | number of time points [17] | number of time points [18] | number of time points [19] | number of time points [20]
inactive: kinase-Nluc reporter destabilization hit call [1] 0 | kinase-Nluc reporter destabilization hit call [2] 0 | kinase-Nluc reporter destabilization hit call [3] 0 | kinase-Nluc reporter destabilization hit call [4] 0 | kinase-Nluc reporter destabilization hit call [5] 0 | kinase-Nluc reporter destabilization hit call [6] 0 | kinase-Nluc reporter destabilization hit call [7] 0 | kinase-Nluc reporter destabilization hit call [8] 0

O=c1[nH]c2ccccc2n1C1CCN(CCCC(c2ccc(F)cc2)c2ccc(F)cc2)CC1 [Pimozide] (2.5 µM)
inactive: kinase-Nluc reporter destabilization hit call [1] 0 | kinase-Nluc reporter destabilization hit call [2] 0 | kinase-Nluc reporter destabilization hit call [3] 0 | kinase-Nluc reporter destabilization hit call [4] 0 | kinase-Nluc reporter destabilization hit call [5] 0 | kinase-Nluc reporter destabilization hit call [6] 0 | kinase-Nluc reporter destabilization hit call [7] 0 | kinase-Nluc reporter destabilization hit call [8] 0
0: number of time points [9] | number of time points [10] | number of time points [11] | number of time points [12] | number of time points [13] | number of time points [14] | number of time points [15] | number of time points [16] | number of time points [17] | number of time points [18] | number of time points [19] | number of time points [20]

O=C1C=CC[C@@H]2[C@H]3CCCN4CCC[C@@H](CN12)[C@@H]34 [Sophocarpine (monohydrate)] (2.5 µM)
0: number of time points [9] | number of time points [10] | number of time points [11] | number of time points [12] | number of time points [13] | number of time points [14] | number of time points [15] | number of time points [16] | number of time points [17] | number of time points [18] | number of time points [19] | number of time points [20]
inactive: kinase-Nluc reporter destabilization hit call [1] 0 | kinase-Nluc reporter destabilization hit call [2] 0 | kinase-Nluc reporter destabilization hit call [3] 0 | kinase-Nluc reporter destabilization hit call [5] 0 | kinase-Nluc reporter destabilization hit call [6] 0 | kinase-Nluc reporter destabilization hit call [7] 0 | kinase-Nluc reporter destabilization hit call [8] 0
active: kinase-Nluc reporter destabilization hit call [4] 1

N#CC(C#N)=Cc1ccc(O)c(O)c1 [Tyrphostin 23] (10 µM)
0: number of time points [9] | number of time points [10] | number of time points [11] | number of time points [12] | number of time points [13] | number of time points [14] | number of time points [15] | number of time points [16] | number of time points [17] | number of time points [18] | number of time points [19] | number of time points [20]
inactive: kinase-Nluc reporter destabilization hit call [1] 0 | kinase-Nluc reporter destabilization hit call [2] 0 | kinase-Nluc reporter destabilization hit call [3] 0 | kinase-Nluc reporter destabilization hit call [4] 0 | kinase-Nluc reporter destabilization hit call [5] 0 | kinase-Nluc reporter destabilization hit call [6] 0 | kinase-Nluc reporter destabilization hit call [7] 0 | kinase-Nluc reporter destabilization hit call [8] 0

CCCCNc1nc(N)c2[nH]c(=O)n(Cc3ccc(C)nc3)c2n1 (10 µM)
inactive: kinase-Nluc reporter destabilization hit call [1] 0 | kinase-Nluc reporter destabilization hit call [2] 0 | kinase-Nluc reporter destabilization hit call [3] 0 | kinase-Nluc reporter destabilization hit call [4] 0 | kinase-Nluc reporter destabilization hit call [5] 0 | kinase-Nluc reporter destabilization hit call [6] 0 | kinase-Nluc reporter destabilization hit call [7] 0 | kinase-Nluc reporter destabilization hit call [8] 0
0: number of time points [9] | number of time points [10] | number of time points [11] | number of time points [12] | number of time points [13] | number of time points [14] | number of time points [15] | number of time points [16] | number of time points [17] | number of time points [18] | number of time points [19] | number of time points [20]

O=c1[nH]c2ccccc2n1C1CCN(Cc2ccc(-c3[nH]c4cc5ncnc5cc4nc3-c3ccccc3)cc2)CC1 [AKT inhibitor VIII] (2.5 µM)
0: number of time points [9] | number of time points [10] | number of time points [11] | number of time points [12] | number of time points [13] | number of time points [14] | number of time points [15] | number of time points [16] | number of time points [17] | number of time points [18] | number of time points [19] | number of time points [20]
inactive: kinase-Nluc reporter destabilization hit call [1] 0 | kinase-Nluc reporter destabilization hit call [2] 0 | kinase-Nluc reporter destabilization hit call [3] 0 | kinase-Nluc reporter destabilization hit call [4] 0 | kinase-Nluc reporter destabilization hit call [5] 0 | kinase-Nluc reporter destabilization hit call [6] 0 | kinase-Nluc reporter destabilization hit call [7] 0 | kinase-Nluc reporter destabilization hit call [8] 0

N#CC(C#N)=Cc1ccc([N+](=O)[O-])c(O)c1 (10 µM)
0: number of time points [9] | number of time points [10] | number of time points [11] | number of time points [12] | number of time points [13] | number of time points [14] | number of time points [15] | number of time points [16] | number of time points [17] | number of time points [18] | number of time points [19] | number of time points [20]
inactive: kinase-Nluc reporter destabilization hit call [1] 0 | kinase-Nluc reporter destabilization hit call [2] 0 | kinase-Nluc reporter destabilization hit call [3] 0 | kinase-Nluc reporter destabilization hit call [4] 0 | kinase-Nluc reporter destabilization hit call [5] 0 | kinase-Nluc reporter destabilization hit call [6] 0 | kinase-Nluc reporter destabilization hit call [7] 0 | kinase-Nluc reporter destabilization hit call [8] 0

Arranged by formula weight (falling): part of the list above
CCCCNc1nc(N)c2[nH]c(=O)n(Cc3ccc(C)nc3)c2n1 (10 µM)
inactive: kinase-Nluc reporter destabilization hit call [1] 0 | kinase-Nluc reporter destabilization hit call [2] 0 | kinase-Nluc reporter destabilization hit call [3] 0 | kinase-Nluc reporter destabilization hit call [4] 0 | kinase-Nluc reporter destabilization hit call [5] 0 | kinase-Nluc reporter destabilization hit call [6] 0 | kinase-Nluc reporter destabilization hit call [7] 0 | kinase-Nluc reporter destabilization hit call [8] 0
0: number of time points [9] | number of time points [10] | number of time points [11] | number of time points [12] | number of time points [13] | number of time points [14] | number of time points [15] | number of time points [16] | number of time points [17] | number of time points [18] | number of time points [19] | number of time points [20]

O=C1C=CC[C@@H]2[C@H]3CCCN4CCC[C@@H](CN12)[C@@H]34 [Sophocarpine (monohydrate)] (2.5 µM)
0: number of time points [9] | number of time points [10] | number of time points [11] | number of time points [12] | number of time points [13] | number of time points [14] | number of time points [15] | number of time points [16] | number of time points [17] | number of time points [18] | number of time points [19] | number of time points [20]
inactive: kinase-Nluc reporter destabilization hit call [1] 0 | kinase-Nluc reporter destabilization hit call [2] 0 | kinase-Nluc reporter destabilization hit call [3] 0 | kinase-Nluc reporter destabilization hit call [5] 0 | kinase-Nluc reporter destabilization hit call [6] 0 | kinase-Nluc reporter destabilization hit call [7] 0 | kinase-Nluc reporter destabilization hit call [8] 0
active: kinase-Nluc reporter destabilization hit call [4] 1

N#CC(C#N)=Cc1ccc(O)c(O)c1 [Tyrphostin 23] (10 µM)
0: number of time points [9] | number of time points [10] | number of time points [11] | number of time points [12] | number of time points [13] | number of time points [14] | number of time points [15] | number of time points [16] | number of time points [17] | number of time points [18] | number of time points [19] | number of time points [20]
inactive: kinase-Nluc reporter destabilization hit call [1] 0 | kinase-Nluc reporter destabilization hit call [2] 0 | kinase-Nluc reporter destabilization hit call [3] 0 | kinase-Nluc reporter destabilization hit call [4] 0 | kinase-Nluc reporter destabilization hit call [5] 0 | kinase-Nluc reporter destabilization hit call [6] 0 | kinase-Nluc reporter destabilization hit call [7] 0 | kinase-Nluc reporter destabilization hit call [8] 0

The results go on.

Cc1ccccc1-n1c(Cn2cnc3c(N)ncnc32)nc2cccc(C)c2c1=O (10 µM)
inactive: kinase-Nluc reporter destabilization hit call [1] 0 | kinase-Nluc reporter destabilization hit call [2] 0 | kinase-Nluc reporter destabilization hit call [3] 0 | kinase-Nluc reporter destabilization hit call [4] 0 | kinase-Nluc reporter destabilization hit call [5] 0 | kinase-Nluc reporter destabilization hit call [6] 0 | kinase-Nluc reporter destabilization hit call [7] 0 | kinase-Nluc reporter destabilization hit call [8] 0
0: number of time points [9] | number of time points [10] | number of time points [11] | number of time points [12] | number of time points [13] | number of time points [14] | number of time points [15] | number of time points [16] | number of time points [17] | number of time points [18] | number of time points [19] | number of time points [20]
